Reference: the supplement of paper PMC10849652
Some of the results follow.

Sequences of proteins named here, by UniProt entry; tags and fusion partners are left off. A change or cut given only in a name is not applied to a line headed by its entry.
UniProt P06748, whole entry, looked up: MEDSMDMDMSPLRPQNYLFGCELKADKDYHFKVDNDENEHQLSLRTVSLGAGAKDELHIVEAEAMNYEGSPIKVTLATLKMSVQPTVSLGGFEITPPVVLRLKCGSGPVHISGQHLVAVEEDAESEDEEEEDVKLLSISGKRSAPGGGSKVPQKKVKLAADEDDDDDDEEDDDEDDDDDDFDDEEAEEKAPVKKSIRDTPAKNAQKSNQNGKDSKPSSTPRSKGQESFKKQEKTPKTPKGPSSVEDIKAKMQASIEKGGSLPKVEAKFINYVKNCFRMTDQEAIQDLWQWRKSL
UniProt Q9Y314: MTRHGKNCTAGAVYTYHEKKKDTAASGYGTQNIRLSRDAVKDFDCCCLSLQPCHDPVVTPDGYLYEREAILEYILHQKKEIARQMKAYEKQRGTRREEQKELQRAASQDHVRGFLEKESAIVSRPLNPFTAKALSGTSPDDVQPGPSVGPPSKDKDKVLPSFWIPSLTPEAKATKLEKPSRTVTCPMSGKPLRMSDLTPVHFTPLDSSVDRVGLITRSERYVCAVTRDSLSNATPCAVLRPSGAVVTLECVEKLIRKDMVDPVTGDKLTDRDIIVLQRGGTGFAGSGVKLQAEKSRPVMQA
UniProt Q9BSD7: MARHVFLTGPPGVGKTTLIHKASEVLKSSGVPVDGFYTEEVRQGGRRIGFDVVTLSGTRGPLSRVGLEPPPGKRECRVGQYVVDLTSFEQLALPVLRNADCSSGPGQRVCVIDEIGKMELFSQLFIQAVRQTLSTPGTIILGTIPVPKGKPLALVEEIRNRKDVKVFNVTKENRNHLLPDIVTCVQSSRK
UniProt P46087: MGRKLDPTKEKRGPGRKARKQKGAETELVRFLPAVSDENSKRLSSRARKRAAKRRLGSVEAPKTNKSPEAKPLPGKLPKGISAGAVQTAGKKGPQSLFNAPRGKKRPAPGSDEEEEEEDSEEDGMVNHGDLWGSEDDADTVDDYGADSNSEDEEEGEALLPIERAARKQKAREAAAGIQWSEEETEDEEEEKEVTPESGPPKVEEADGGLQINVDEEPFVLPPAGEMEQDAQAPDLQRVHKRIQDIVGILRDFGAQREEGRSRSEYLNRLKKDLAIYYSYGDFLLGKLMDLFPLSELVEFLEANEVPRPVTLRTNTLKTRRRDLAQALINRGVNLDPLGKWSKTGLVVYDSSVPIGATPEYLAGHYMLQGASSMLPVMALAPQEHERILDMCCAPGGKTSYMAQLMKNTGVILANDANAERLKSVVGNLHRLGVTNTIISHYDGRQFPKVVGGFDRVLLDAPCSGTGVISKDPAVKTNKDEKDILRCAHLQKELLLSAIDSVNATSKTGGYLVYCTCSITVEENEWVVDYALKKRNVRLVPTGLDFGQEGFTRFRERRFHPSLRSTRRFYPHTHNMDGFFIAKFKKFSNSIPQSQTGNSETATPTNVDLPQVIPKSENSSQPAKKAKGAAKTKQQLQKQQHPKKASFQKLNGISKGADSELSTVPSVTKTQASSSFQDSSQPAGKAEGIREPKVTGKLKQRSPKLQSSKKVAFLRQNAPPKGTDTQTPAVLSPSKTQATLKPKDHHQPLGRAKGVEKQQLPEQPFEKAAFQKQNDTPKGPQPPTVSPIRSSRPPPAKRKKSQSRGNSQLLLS
UniProt O60361, whole entry, looked up: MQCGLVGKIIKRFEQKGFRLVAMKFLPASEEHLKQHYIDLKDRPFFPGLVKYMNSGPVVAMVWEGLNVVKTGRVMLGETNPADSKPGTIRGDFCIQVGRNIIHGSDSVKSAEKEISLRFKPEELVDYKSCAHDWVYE
UniProt Q96CB9: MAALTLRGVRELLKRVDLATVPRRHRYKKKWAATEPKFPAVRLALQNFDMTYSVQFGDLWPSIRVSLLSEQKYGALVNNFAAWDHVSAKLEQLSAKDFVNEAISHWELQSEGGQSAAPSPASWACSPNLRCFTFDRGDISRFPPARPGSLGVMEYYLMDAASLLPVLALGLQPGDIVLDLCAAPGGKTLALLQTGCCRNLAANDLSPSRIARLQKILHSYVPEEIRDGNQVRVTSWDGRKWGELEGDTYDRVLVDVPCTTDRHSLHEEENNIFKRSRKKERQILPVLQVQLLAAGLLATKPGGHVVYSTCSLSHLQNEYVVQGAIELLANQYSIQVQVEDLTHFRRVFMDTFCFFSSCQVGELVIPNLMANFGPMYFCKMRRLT
UniProt Q8IVD9: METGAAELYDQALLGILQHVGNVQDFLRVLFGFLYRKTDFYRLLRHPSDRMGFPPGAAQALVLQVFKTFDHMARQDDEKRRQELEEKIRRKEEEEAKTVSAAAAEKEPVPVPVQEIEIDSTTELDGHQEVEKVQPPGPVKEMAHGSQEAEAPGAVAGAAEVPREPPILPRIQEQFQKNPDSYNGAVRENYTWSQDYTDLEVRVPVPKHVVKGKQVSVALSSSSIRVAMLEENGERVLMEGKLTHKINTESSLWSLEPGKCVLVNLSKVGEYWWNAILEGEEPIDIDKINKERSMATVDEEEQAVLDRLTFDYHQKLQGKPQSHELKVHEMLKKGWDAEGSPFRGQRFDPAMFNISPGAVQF
UniProt Q9BRJ7: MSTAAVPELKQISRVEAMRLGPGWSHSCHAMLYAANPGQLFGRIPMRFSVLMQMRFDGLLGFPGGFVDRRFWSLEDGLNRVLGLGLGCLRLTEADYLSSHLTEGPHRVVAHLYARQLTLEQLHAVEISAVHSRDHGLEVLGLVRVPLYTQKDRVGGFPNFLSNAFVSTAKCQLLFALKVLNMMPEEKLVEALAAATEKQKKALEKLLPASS
UniProt Q96MG7: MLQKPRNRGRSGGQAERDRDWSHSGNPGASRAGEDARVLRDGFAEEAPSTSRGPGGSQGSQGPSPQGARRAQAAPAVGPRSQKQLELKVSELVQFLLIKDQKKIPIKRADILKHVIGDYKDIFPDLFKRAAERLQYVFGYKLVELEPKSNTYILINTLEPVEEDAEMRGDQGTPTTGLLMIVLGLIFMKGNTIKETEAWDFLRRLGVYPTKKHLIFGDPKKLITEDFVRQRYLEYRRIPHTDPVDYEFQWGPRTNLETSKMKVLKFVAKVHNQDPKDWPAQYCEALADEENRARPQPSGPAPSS
UniProt P53384: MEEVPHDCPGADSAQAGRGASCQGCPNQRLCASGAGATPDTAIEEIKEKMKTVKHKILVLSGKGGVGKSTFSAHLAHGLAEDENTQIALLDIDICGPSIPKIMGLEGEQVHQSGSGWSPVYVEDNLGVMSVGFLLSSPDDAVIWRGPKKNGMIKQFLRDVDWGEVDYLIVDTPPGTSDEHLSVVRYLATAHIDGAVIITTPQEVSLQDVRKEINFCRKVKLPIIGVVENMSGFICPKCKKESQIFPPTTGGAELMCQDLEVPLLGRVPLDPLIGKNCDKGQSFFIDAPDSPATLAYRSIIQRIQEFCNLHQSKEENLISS
UniProt Q9NV35: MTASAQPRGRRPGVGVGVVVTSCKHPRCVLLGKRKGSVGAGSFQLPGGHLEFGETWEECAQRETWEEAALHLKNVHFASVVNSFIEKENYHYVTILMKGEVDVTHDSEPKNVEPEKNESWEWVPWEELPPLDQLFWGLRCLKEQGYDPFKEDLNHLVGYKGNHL
UniProt Q9UMY1: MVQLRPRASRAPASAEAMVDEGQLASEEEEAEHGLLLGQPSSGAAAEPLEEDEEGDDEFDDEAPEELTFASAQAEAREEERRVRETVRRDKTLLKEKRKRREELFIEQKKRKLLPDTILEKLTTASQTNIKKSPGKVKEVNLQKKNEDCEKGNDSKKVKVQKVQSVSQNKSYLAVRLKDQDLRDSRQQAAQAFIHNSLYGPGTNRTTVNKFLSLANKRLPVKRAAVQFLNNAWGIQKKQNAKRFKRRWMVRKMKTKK
UniProt Q14978: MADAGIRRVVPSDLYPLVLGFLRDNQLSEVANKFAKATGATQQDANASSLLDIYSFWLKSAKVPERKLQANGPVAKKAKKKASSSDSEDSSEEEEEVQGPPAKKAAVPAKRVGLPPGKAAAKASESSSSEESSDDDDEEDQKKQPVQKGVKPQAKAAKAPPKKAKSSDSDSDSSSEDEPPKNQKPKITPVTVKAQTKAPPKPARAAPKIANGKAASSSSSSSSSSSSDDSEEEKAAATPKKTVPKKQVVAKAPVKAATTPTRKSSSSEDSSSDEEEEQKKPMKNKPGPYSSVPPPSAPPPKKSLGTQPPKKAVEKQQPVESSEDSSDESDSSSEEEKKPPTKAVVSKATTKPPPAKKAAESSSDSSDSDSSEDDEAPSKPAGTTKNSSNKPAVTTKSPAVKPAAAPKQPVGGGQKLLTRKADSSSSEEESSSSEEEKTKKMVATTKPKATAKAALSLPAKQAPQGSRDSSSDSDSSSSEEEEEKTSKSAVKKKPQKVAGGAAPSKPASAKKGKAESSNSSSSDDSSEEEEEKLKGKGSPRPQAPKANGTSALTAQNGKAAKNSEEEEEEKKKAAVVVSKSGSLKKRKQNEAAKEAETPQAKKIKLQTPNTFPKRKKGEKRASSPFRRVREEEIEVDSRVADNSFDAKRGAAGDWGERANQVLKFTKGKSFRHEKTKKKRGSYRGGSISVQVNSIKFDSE
UniProt Q9BVI4: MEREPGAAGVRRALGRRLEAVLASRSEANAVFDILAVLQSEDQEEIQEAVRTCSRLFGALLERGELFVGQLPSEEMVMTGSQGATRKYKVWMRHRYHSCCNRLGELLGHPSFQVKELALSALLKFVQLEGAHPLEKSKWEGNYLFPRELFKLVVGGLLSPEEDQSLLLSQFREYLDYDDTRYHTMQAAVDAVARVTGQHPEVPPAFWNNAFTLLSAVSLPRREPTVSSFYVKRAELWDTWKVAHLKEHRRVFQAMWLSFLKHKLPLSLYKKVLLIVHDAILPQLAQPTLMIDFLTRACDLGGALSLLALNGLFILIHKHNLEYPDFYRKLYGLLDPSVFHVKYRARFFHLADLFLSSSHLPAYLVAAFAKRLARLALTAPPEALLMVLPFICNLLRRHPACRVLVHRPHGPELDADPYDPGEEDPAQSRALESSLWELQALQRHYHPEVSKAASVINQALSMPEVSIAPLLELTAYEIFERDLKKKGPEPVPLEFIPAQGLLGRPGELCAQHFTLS
UniProt Q8WV22: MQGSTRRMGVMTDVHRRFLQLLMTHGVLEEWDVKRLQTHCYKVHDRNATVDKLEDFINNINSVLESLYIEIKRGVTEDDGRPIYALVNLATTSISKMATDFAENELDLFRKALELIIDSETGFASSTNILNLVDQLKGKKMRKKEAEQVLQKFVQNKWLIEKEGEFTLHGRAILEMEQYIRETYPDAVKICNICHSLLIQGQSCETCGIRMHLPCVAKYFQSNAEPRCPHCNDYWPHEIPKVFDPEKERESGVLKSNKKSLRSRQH
UniProt Q9H857: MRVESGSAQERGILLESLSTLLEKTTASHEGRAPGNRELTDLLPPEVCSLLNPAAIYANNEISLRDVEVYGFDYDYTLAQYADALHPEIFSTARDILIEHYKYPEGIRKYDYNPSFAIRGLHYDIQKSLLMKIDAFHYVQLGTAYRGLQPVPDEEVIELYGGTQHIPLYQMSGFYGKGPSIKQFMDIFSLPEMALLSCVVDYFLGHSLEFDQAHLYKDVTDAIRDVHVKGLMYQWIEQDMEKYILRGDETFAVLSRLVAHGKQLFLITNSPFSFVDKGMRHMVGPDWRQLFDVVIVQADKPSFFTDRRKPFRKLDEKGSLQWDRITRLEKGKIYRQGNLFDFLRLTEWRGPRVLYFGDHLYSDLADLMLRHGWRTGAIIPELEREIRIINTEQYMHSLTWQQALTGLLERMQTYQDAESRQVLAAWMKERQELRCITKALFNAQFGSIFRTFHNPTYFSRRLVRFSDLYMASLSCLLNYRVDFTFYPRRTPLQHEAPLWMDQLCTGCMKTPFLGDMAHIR
UniProt Q86U38: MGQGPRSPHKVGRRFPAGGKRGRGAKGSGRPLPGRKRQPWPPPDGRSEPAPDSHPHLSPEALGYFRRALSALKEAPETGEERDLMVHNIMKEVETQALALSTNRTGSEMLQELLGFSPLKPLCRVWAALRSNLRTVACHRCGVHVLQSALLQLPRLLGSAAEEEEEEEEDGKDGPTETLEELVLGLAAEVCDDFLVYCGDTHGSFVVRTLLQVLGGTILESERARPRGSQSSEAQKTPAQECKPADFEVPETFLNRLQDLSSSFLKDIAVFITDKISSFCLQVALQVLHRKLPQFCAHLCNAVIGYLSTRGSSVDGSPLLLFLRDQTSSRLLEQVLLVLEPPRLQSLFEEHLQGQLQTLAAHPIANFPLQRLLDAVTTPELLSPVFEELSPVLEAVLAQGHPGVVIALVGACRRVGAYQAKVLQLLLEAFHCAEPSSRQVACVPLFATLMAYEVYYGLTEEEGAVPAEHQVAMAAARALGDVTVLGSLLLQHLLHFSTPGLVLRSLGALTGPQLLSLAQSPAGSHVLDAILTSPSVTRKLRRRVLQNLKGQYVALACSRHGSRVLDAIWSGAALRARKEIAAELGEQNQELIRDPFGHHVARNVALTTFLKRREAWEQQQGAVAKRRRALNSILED

Key:
Experiment in all cases: log2 fold change, soluble protein after heating vs DMSO (PISA); higher = thermal stabilisation; K562 lysate, 10 uM; active = over 0.2 and 3.5 SD of the protein, either way, in both replicates (recomputed)
[1] = compound: Cc1cn(-c2cc(NC(=O)c3ccc(C)c(Nc4nccc(-c5cccnc5)n4)c3)cc(C(F)(F)F)c2)cn1 [nilotinib]
Summary of the method: (§1)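 Values give the log-two fold change in thermal stability against solvent controls, from duplicates. Crude K562 extract at 1 mg/mL protein, made by dounce homogenisation in PBS pH 7.4 with 1 mM MgCl2, was treated with 10 μM compound for 30 min. After 3 min heating across 48°C-58°C, aliquots were pooled, adjusted to 0.5% NP-40 at 4°C and centrifuged at 21,000xg for 90 min. The supernatant was measured by TMTpro 16plex LC-MS/MS with channel sums equalised.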

[2] = compound: Cc1nc(Nc2n[nH]c3c2CN(C(=O)N[C@H](CN(C)C)c2ccccc2)C3(C)C)c2sccc2n1
Summary of the method: as §1

[3] = compound: Cc1nc(Nc2ncc(C(=O)Nc3c(C)cccc3Cl)s2)cc(N2CCN(CCO)CC2)n1 [dasatinib]
Summary of the method: as §1

[4] = compound: Cc1ncc(-c2ccnc(Nc3ccc(S(C)(=O)=O)cc3)n2)n1C(C)C
Summary of the method: as §1

[5] = compound: Cn1cc(-c2ccc3c(c2)CCN3C(=O)Cc2cccc(C(F)(F)F)c2)c2c(N)ncnc21
Summary of the method: as §1

[6] = compound: Cn1cc(CNCC2CCN(c3ncc(C(=O)NO)cn3)CC2)c2ccccc21 [quisinostat]
Summary of the method: as §1

[7] = compound: Cn1cncc1[C@@](N)(c1ccc(Cl)cc1)c1ccc2c(c1)c(-c1cccc(Cl)c1)cc(=O)n2C [tipifarnib]
Summary of the method: as §1

[8] = compound: NC(=O)Nc1cc(-c2cccc(F)c2)sc1C(=O)N[C@H]1CCCNC1
Summary of the method: as §1

[9] = compound: NC(=O)c1cnc(N[C@@H]2CCCC[C@@H]2N)nc1Nc1cccc(-n2nccn2)c1
Summary of the method: as §1

[10] = compound: NC1(c2ccc(-c3nc4ccn5c(=O)[nH]nc5c4cc3-c3ccccc3)cc2)CCC1
Summary of the method: as §1

[11] = compound: NCC(=O)Nc1ccc(-n2nc(C(F)(F)F)cc2-c2ccc3c(ccc4ccccc43)c2)cc1
Summary of the method: as §1

[12] = compound: O=C(CCCCCCC(=O)Nc1ccccc1)NO [vorinostat]
Summary of the method: as §1

[13] = compound: O=C(O)c1ccc2c(c1)nc(Nc1cccc(Cl)c1)c1ccncc12 [silmitasertib]
Summary of the method: as §1

[14] = compound: O=C1NC(=O)C(c2cnc3ccccn23)=C1c1cn2c3c(cc(F)cc13)CN(C(=O)N1CCCCC1)CC2
Summary of the method: as §1

[15] = compound: c1cn2cc(-c3ccc4cn[nH]c4c3)nc(Nc3ccc(N4CCOCC4)cc3)c2n1 [entospletinib]
Summary of the method: as §1

Target	log2 fold change [1]	log2 fold change [2]	log2 fold change [3]	log2 fold change [4]	log2 fold change [5]	log2 fold change [6]	log2 fold change [7]	log2 fold change [8]	log2 fold change [9]	log2 fold change [10]	log2 fold change [11]	log2 fold change [12]	log2 fold change [13]	log2 fold change [14]	log2 fold change [15]
NRAS (UniProt P01111)	inactive: -0.034	inactive: 0.005	inactive: 0.011	inactive: 0.007	inactive: 0.001	inactive: 0.11	inactive: 0.013	inactive: -0.029	inactive: -0.019	inactive: 0.014	inactive: -0.049	inactive: 0.124	inactive: -0.001	inactive: -0.011	inactive: -0.012
NPM1 (UniProt P06748)	inactive: 0.016	inactive: -0.017	inactive: 0.028	inactive: -0.004	inactive: -0.024	inactive: 0.039	inactive: 0.032	inactive: -0.007	inactive: 0	inactive: 0.035	inactive: -0.008	inactive: 0.187	inactive: -0.005	inactive: 0.035	inactive: -0.023
NOSIP (UniProt Q9Y314)	inactive: 0.005	inactive: 0.009	inactive: -0.018	inactive: 0.027	inactive: -0.019	inactive: -0.151	inactive: -0.021	inactive: 0.003	inactive: -0.015	inactive: 0.006	inactive: -0.015	active: -0.809	inactive: -0.047	inactive: 0.002	inactive: 0.013
NTPCR (UniProt Q9BSD7)	inactive: 0.019	inactive: -0.01	inactive: -0.061	inactive: 0.056	inactive: 0.032	inactive: -0.088	inactive: 0.003	inactive: 0.028	inactive: 0.017	inactive: -0.027	inactive: 0.014	active: -0.331	inactive: 0.029	inactive: 0.003	inactive: 0.059
NOP2 isoform 4 (UniProt P46087)	inactive: 0.035	inactive: -0.004	inactive: 0.004	inactive: -0.005	inactive: 0.004	inactive: -0.025	inactive: 0.016	inactive: -0.002	inactive: 0.008	inactive: -0.014	inactive: 0.022	inactive: 0.113	inactive: 0.027	inactive: 0.009	inactive: -0.006
NME2P1 (UniProt O60361)	inactive: -0.121	inactive: -0.037	inactive: -0.016	inactive: -0.09	inactive: 0.039	inactive: -0.629	inactive: -0.076	inactive: 0.07	inactive: 0.125	inactive: 0.008	inactive: 0.18	inactive: 0	inactive: 0.025	inactive: -0.168	–
NSUN4 (UniProt Q96CB9)	inactive: 0.022	inactive: -0.018	inactive: -0.029	inactive: -0.059	inactive: -0.083	inactive: 0.019	inactive: 0.132	inactive: 0.03	inactive: -0.082	inactive: 0.018	inactive: -0.034	inactive: -0.123	inactive: 0.089	inactive: 0.046	–
NUDCD3 (UniProt Q8IVD9)	inactive: -0.008	inactive: 0.037	inactive: 0.022	inactive: -0.02	inactive: 0.02	inactive: -0.023	inactive: -0.054	inactive: 0.002	inactive: -0.023	inactive: 0.012	inactive: -0.035	inactive: 0.046	inactive: 0.007	inactive: -0.029	inactive: 0.006
NUDT16L1 (UniProt Q9BRJ7)	inactive: -0.033	inactive: 0.043	inactive: 0.035	inactive: -0.002	inactive: -0.058	inactive: 0.105	inactive: 0.017	inactive: 0.025	inactive: 0.006	inactive: 0.021	inactive: -0.072	inactive: -0.13	inactive: -0.004	inactive: -0.02	inactive: -0.019
NSMCE3 (UniProt Q96MG7)	inactive: -0.005	inactive: -0.043	inactive: 0.068	inactive: -0.065	inactive: 0.043	inactive: -0.092	inactive: -0.021	inactive: -0.007	inactive: 0.009	inactive: -0.042	inactive: 0.005	inactive: -0.072	inactive: -0.056	inactive: 0.008	inactive: 0.049
NUBP1 (UniProt P53384)	inactive: 0.027	inactive: -0.011	inactive: 0.008	inactive: -0.007	inactive: 0.021	inactive: 0.036	inactive: 0.033	inactive: -0.012	inactive: -0.007	inactive: 0.033	inactive: -0.002	inactive: -0.153	inactive: 0.002	inactive: 0.025	inactive: -0.025
NT5C2 (UniProt P49902)	inactive: 0.021	inactive: -0.01	inactive: 0.003	inactive: 0.013	inactive: 0	inactive: -0.013	inactive: 0.039	inactive: 0.015	inactive: -0.01	inactive: -0.023	inactive: -0.035	inactive: 0.074	inactive: 0.03	inactive: 0.011	inactive: 0.009
NUDT15 (UniProt Q9NV35)	inactive: -0.019	inactive: 0.06	inactive: -0.035	inactive: -0.009	inactive: 0.027	inactive: 0.006	inactive: 0.03	inactive: 0.032	inactive: -0.004	inactive: -0.042	inactive: 0.045	inactive: 0.168	inactive: -0.077	inactive: -0.066	inactive: -0.008
NOL7 (UniProt Q9UMY1)	inactive: 0.038	inactive: 0.005	inactive: 0.053	inactive: 0	inactive: -0.007	inactive: -0.049	inactive: -0.032	inactive: -0.019	inactive: 0.01	inactive: 0.042	inactive: 0.029	inactive: 0.091	inactive: -0.031	inactive: -0.045	inactive: 0.015
NOLC1 isoform 2 (UniProt Q14978)	inactive: 0	inactive: -0.025	inactive: 0.008	inactive: -0.007	inactive: 0.012	inactive: 0.005	inactive: 0.013	inactive: -0.039	inactive: -0.002	inactive: 0.027	inactive: -0.001	inactive: 0.146	inactive: 0	inactive: 0.01	inactive: -0.007
NOC4L (UniProt Q9BVI4)	inactive: 0.008	inactive: 0	inactive: -0.04	inactive: 0.007	inactive: 0.017	inactive: -0.043	inactive: 0.015	inactive: 0.079	inactive: -0.04	inactive: -0.008	inactive: 0.039	inactive: -0.059	inactive: 0.001	inactive: -0.006	inactive: 0.029
NSMCE1 (UniProt Q8WV22)	inactive: 0.018	inactive: -0.001	inactive: 0.013	inactive: -0.028	inactive: 0.001	inactive: -0.024	inactive: -0.042	inactive: 0.008	inactive: 0.006	inactive: 0.03	inactive: 0.062	inactive: -0.168	inactive: 0.046	inactive: 0.041	inactive: 0
NT5C3B (UniProt Q969T7)	inactive: 0.01	inactive: -0.018	inactive: 0.006	inactive: 0.055	inactive: 0.005	inactive: 0.018	inactive: -0.085	inactive: -0.026	inactive: 0.015	inactive: -0.002	inactive: -0.036	inactive: -0.1	inactive: -0.003	inactive: 0.16	inactive: -0.031
NMD3 (UniProt Q96D46)	inactive: 0.025	inactive: 0.028	inactive: -0.042	inactive: 0.015	inactive: -0.017	inactive: -0.003	inactive: -0.004	inactive: 0.008	inactive: 0.002	inactive: -0.01	inactive: -0.003	inactive: -0.001	inactive: 0.021	inactive: -0.004	inactive: 0.023
NT5DC2 isoform 2 (UniProt Q9H857)	inactive: 0.025	inactive: -0.041	inactive: 0.067	inactive: 0.029	inactive: -0.027	inactive: -0.002	inactive: -0.027	inactive: -0.002	inactive: 0.06	inactive: -0.011	inactive: 0.013	active: -0.272	inactive: -0.019	inactive: 0	inactive: -0.013
NOP9 (UniProt Q86U38)	inactive: 0.009	inactive: 0.036	inactive: -0.044	inactive: -0.035	inactive: 0.051	inactive: 0.015	inactive: -0.018	inactive: 0.027	inactive: -0.023	inactive: -0.01	inactive: 0.039	inactive: 0	inactive: 0.15	inactive: 0.037	inactive: -0.091

Reformatted with bars between the fields: entries from further up.
Target | log2 fold change [1] | log2 fold change [2] | log2 fold change [3] | log2 fold change [4] | log2 fold change [5] | log2 fold change [6] | log2 fold change [7] | log2 fold change [8] | log2 fold change [9] | log2 fold change [10] | log2 fold change [11] | log2 fold change [12] | log2 fold change [13] | log2 fold change [14] | log2 fold change [15]
NSMCE3 (UniProt Q96MG7) | inactive: -0.005 | inactive: -0.043 | inactive: 0.068 | inactive: -0.065 | inactive: 0.043 | inactive: -0.092 | inactive: -0.021 | inactive: -0.007 | inactive: 0.009 | inactive: -0.042 | inactive: 0.005 | inactive: -0.072 | inactive: -0.056 | inactive: 0.008 | inactive: 0.049
NUBP1 (UniProt P53384) | inactive: 0.027 | inactive: -0.011 | inactive: 0.008 | inactive: -0.007 | inactive: 0.021 | inactive: 0.036 | inactive: 0.033 | inactive: -0.012 | inactive: -0.007 | inactive: 0.033 | inactive: -0.002 | inactive: -0.153 | inactive: 0.002 | inactive: 0.025 | inactive: -0.025
